PubChem BioAssay AID1259254 | NCATS | 2017
Purpose: 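Genome-wide screen for genes that prevent DNA re-replication in cancer cells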 (primary screen). System: human HCT116 colorectal cancer cells. Knock-down reagent: single siRNA against human genes. Duration: 3 days. Read-out: 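Nuclei stained with Hoechst and imaged; cell-cycle phase assigned by DNA content; G2 share scaled per plate, non-targeting siRNA 0%, GMNN siRNA 100%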. Reading the numbers: G2 robust z-score and G2 cells, % of GMNN control: higher = more G2 cells, more excess DNA replication; raw share of cells in G2: higher = larger share of cells with G2 DNA content. Active means: 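Active siRNAs have a G2 robust z of 5 or more median absolute deviations over the median, which in these data means about 38% or higher of GMNN control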.
Shown is an unselected part of about 59,000 reagents. Of all reagents, about 1,550 (2.6%) were called active. 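G2 share is only a proxy for re-replication; each gene was hit by three separate siRNAs, and active genes were retested.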 Raw values are not corrected between plates. Unmarked entries are inactive. Reagents against one gene are numbered here. No sequences are given here. Not given: the amount of reagent.

G2 robust z-score,"G2 cells, % of GMNN control",raw share of cells in G2 (%),Gene,reagent no.
1.03,10.2,7.25,TMEM61,1
2.49,20.5,9.82,TMEM61,2
-0.52,-0.692,2.54,TMEM61,3
1.17,11.2,8.76,TXNDC16,1
3.08,24.6,16.2,TXNDC16,2
-0.367,0.384,3.15,TXNDC16,3
2.59,21.2,13.1,ZSWIM1,1
0.0462,3.29,4.03,ZSWIM1,2
1.82,15.8,7.93,ZSWIM1,3
-0.595,-1.22,3.6,DTD2,1
2.07,17.6,8.56,DTD2,2
-0.504,-0.576,1.65,DTD2,3
1.72,15.1,10.8,PSMB1,1
1.77,15.4,10.4,PSMB1,2
5.08 (active),38.7,18.4,PSMB1,3
1.94,16.6,10.9,CPAP,1
2.2,18.4,11.8,CPAP,2
0.0242,3.14,4.14,CPAP,3
0.892,9.24,9.23,SSPN,1
2.47,20.3,11.9,SSPN,2
0.128,3.87,4.72,SSPN,3
-1.46,-7.3,2.59,GLDC,1
0.868,9.07,8.71,GLDC,2
0.206,4.42,5.23,GLDC,3
-0.191,1.63,3.13,MRPL24,1
-0.11,2.19,5.54,MRPL24,2
1.61,14.3,11,MRPL24,3
1.64,14.5,10.4,MAPK8,1
4.61,35.4,17.3,MAPK8,2
-0.447,-0.175,3.96,MAPK8,3
1.48,13.4,10.2,CPE,1
-0.698,-1.95,4.22,CPE,2
-0.294,0.901,4.25,CPE,3
-1.12,-4.88,2.17,PACRG-AS3,1
1.24,11.7,7.16,PACRG-AS3,2
1.18,11.3,7.29,PACRG-AS3,3
-0.22,1.42,4,CADPS,1
-0.872,-3.17,4.58,CADPS,2
-0.0344,2.73,4.48,CADPS,3
-0.0269,2.78,4.87,CYB5R1,1
-0.78,-2.52,4.81,CYB5R1,2
1.07,10.5,8.12,CYB5R1,3
9.54 (active),70.1,28.6,ASGR2,1
3.2,25.5,13.5,ASGR2,2
1.88,16.2,10.8,ASGR2,3
0.939,9.57,10.5,KDM1B,1
-0.0566,2.57,5.64,KDM1B,2
0.373,5.59,7.05,KDM1B,3
0.114,3.77,5,CD79B,1
5.03 (active),38.4,23.3,CD79B,2
-0.274,1.04,4.47,CD79B,3
0.0576,3.37,5.44,GUCY1A1,1
-0.693,-1.91,4.35,GUCY1A1,2
0.678,7.74,8.63,GUCY1A1,3
6.26 (active),47,19.6,ASB14,1
1.15,11,6.32,ASB14,2
-0.344,0.549,3.26,ASB14,3
0.0403,3.25,4.2,NOTUM,1
1.67,14.7,8.76,NOTUM,2
-0.12,2.13,3.57,NOTUM,3
1.74,15.2,10.4,CHAD,1
-0.443,-0.146,4.94,CHAD,2
-1.05,-4.4,2.58,CHAD,3
-1.08,-4.66,4.14,TEX14,1
2.73,22.1,13.2,TEX14,2
0.345,5.39,5.41,TEX14,3
-0.123,2.1,4.84,RAP2A,1
0.436,6.04,7.06,RAP2A,2
0.116,3.79,6.12,RAP2A,3

Sorted by “raw share of cells in G2 (%)” (low to high): some entries from above.
G2 robust z-score,"G2 cells, % of GMNN control",raw share of cells in G2 (%),Gene,reagent no.
-1.05,-4.4,2.58,CHAD,3
-0.344,0.549,3.26,ASB14,3
-0.12,2.13,3.57,NOTUM,3
-1.08,-4.66,4.14,TEX14,1
0.0403,3.25,4.2,NOTUM,1
-0.443,-0.146,4.94,CHAD,2
1.67,14.7,8.76,NOTUM,2
1.74,15.2,10.4,CHAD,1
